Measurements taken from article PMC13196873.
Results are given in words; binding and its absence hold for the method and conditions named. In cells and extracts the contact can be indirect. Some results given as binding are weak or reduced against the parent protein; the word gives no strength. Sequences can lack the tags named with a protein. Values belong to the binder of their own block, whether it stands above or below them.

By UniProt entry, the sequences of proteins in these tests, tags left out.
UniProt P22460: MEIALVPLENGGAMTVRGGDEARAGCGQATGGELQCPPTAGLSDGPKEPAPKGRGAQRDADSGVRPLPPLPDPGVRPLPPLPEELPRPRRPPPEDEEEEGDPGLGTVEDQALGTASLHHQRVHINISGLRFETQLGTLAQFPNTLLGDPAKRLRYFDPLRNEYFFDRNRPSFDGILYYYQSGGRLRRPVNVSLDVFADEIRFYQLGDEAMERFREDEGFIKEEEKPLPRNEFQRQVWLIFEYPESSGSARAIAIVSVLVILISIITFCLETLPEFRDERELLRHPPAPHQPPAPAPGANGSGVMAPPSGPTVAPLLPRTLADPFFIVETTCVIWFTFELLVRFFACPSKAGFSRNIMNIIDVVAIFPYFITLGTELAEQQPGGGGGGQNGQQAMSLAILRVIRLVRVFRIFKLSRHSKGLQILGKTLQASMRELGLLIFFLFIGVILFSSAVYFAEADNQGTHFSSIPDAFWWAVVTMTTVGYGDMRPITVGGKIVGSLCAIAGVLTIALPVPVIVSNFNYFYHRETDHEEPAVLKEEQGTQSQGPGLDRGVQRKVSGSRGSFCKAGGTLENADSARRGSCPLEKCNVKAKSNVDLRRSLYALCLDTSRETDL

Biological target: KV1.5 channel (UniProt P22460)
Assay: co-IP; HEK293 cells coexpressing KV1.5 and FLAG-tagged Lgi3 or Lgi4; lysates immunoprecipitated with anti-KV1.5 antibody, immunoblotted for KV1.5 and FLAG; also done with KVβ1.2 coexpressed (Figure S11C and D)

binding: binds
B1: Lgi4 (FLAG-tagged) (protein, UniProt Q8N135-1 20-537)
chain: WRPPKGKCPLRCSCSKDSALCEGSPDLPVSFSPTLLSLSLVRTGVTQLKAGSFLRIPSLHLLLFTSNSFSVIEDDAFAGLSHLQYLFIEDNEIGSISKNALRGLRSLTHLSLANNHLETLPRFLFRGLDTLTHVDLRGNPFQCDCRVLWLLQWMPTVNASVGTGACAGPASLSHMQLHHLDPKTFKCRAIELSWFQTVGESALSVEPFSYQGEPHIVLAQPFAGRCLILSWDYSLQRFRPEEELPAASVVSCKPLVLGPSLFVLAARLWGGSQLWARPSPGLRLAPTQTLAPRRLLRPNDAELLWLEGQPCFVVADASKAGSTTLLCRDGPGFYPHQSLHAWHRDTDAEALELDGRPHLLLASASQRPVLFHWTGGRFERRTDIPEAEDVYATRHFQAGGDVFLCLTRYIGDSMVMRWDGSMFRLLQQLPSRGAHVFQPLLIARDQLAILGSDFAFSQVLRLEPDKGLLEPLQELGPPALVAPRAFAHITMAGRRFLFAACFKGPTQIYQHHEIDLSA

binding: binds
B2: Lgi3 (FLAG-tagged) (protein, UniProt Q8N145 31-548)
chain: KRPPKTPPCPPSCSCTRDTAFCVDSKAVPRNLPSEVISLTLVNAAFSEIQDGAFSHLPLLQFLLLNSNKFTLIGDNAFTGLSHLQYLFIENNDIWALSKFTFRGLKSLTHLSLANNNLQTLPRDIFRPLDILNDLDLRGNSLNCDCKVKWLVEWLAHTNTTVAPIYCASPPRFQEHKVQDLPLREFDCITTDFVLYQTLAFPAVSAEPFLYSSDLYLALAQPGVSACTILKWDYVERQLRDYDRIPAPSAVHCKPMVVDSQLYVVVAQLFGGSYIYHWDPNTTRFTRLQDIDPQRVRKPNDLEAFRIDGDWYFAVADSSKAGATSLYRWHQNGFYSHQALHPWHRDTDLEFVDGEGKPRLIVSSSSQAPVIYQWSRTQKQFVAQGEVTQVPDAQAVKHFRAGRDSYLCLSRYIGDSKILRWEGTRFSEVQALPSRGSLALQPFLVGGRRYLALGSDFSFTQIYQWDEGRQKFVRFQELAVQAPRAFCYMPAGDAQLLLAPSFKGQTLVYRHIVVDLSA
